These results are taken from article PMC8315076.

By UniProt entry, the sequences of proteins in these tests, tags left out.
UniProt Q15717: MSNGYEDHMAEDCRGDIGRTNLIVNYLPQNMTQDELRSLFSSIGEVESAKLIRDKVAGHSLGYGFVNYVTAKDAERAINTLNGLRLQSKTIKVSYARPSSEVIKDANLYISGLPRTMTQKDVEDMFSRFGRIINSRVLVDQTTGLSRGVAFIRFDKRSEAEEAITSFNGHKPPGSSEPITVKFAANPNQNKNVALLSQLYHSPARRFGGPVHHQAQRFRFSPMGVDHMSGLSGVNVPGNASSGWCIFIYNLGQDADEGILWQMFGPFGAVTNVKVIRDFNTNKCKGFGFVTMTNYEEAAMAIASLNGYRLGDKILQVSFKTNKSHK

This test has as its target ELAV like RNA-binding protein 1 (ELAVL1) (human (endogenous in PC3)) (UniProt Q15717). In words: co-IP; lysates of PCa cells (control or METTL3 knockdown by sh-METTL3) immunoprecipitated with anti-ELAVL1, blots probed with anti-USP4.

Results are given in words; binding and its absence hold for the method and conditions named. Binding seen in cells or lysates may run through a third protein. Some binding calls cover weakened binding; strength is not graded here.

B1: USP4 (enzyme, UniProt Q13107 1-963)
chain: MAEGGGCRERPDAETQKSELGPLMRTTLQRGAQWYLIDSRWFKQWKKYVGFDSWDMYNVGEHNLFPGPIDNSGLFSDPESQTLKEHLIDELDYVLVPTEAWNKLLNWYGCVEGQQPIVRKVVEHGLFVKHCKVEVYLLELKLCENSDPTNVLSCHFSKADTIATIEKEMRKLFNIPAERETRLWNKYMSNTYEQLSKLDNTVQDAGLYQGQVLVIEPQNEDGTWPRQTLQSKSSTAPSRNFTTSPKSSASPYSSVSASLIANGDSTSTCGMHSSGVSRGGSGFSASYNCQEPPSSHIQPGLCGLGNLGNTCFMNSALQCLSNTAPLTDYFLKDEYEAEINRDNPLGMKGEIAEAYAELIKQMWSGRDAHVAPRMFKTQVGRFAPQFSGYQQQDSQELLAFLLDGLHEDLNRVKKKPYLELKDANGRPDAVVAKEAWENHRLRNDSVIVDTFHGLFKSTLVCPECAKVSVTFDPFCYLTLPLPLKKDRVMEVFLVPADPHCRPTQYRVTVPLMGAVSDLCEALSRLSGIAAENMVVADVYNHRFHKIFQMDEGLNHIMPRDDIFVYEVCSTSVDGSECVTLPVYFRERKSRPSSTSSASALYGQPLLLSVPKHKLTLESLYQAVCDRISRYVKQPLPDEFGSSPLEPGACNGSRNSCEGEDEEEMEHQEEGKEQLSETEGSGEDEPGNDPSETTQKKIKGQPCPKRLFTFSLVNSYGTADINSLAADGKLLKLNSRSTLAMDWDSETRRLYYDEQESEAYEKHVSMLQPQKKKKTTVALRDCIELFTTMETLGEHDPWYCPNCKKHQQATKKFDLWSLPKILVVHLKRFSYNRYWRDKLDTVVEFPIRGLNMSEFVCNLSARPYVYDLIAVSNHYGAMGVGHYTAYAKNKLNGKWYYFDDSNVSLASEDQIVTKAAYVLFYQRRDDEFYKTPSLSSSGSSDGGTRPSSSQQGFGDDEACSMDTN
B1: the binding result was “binds”.
